Results are given in words; binding and its absence hold for the method and conditions named. Binding seen in cells or lysates may run through a third protein. For some assays here: A result given as binding can be weak or reduced; the word gives no strength.
What was measured:
[1] = molecular target: SETD1A double-motif mutant, F5-5A with F2 (BuGZ/BUB3-binding site) (human) (UniProt O15047); assay: co-IP; 293T cells transfected with tagged constructs; SETD1A constructs precipitated (anti-FLAG M2 or anti-HA agarose, overnight 4 °C), BOD1L and cyclin K detected by western blot; washes with 0.5 M STEN buffer (500 mM NaCl, 0.2% NP-40)
[2] = molecular target: SETD1A F5-5A (alanine substitution mutant of LNRKM) (human) (UniProt O15047); assay: as above
[3] = molecular target: SETD1A double-motif mutant, F5-5A with F1 (cyclin K-binding site) (human) (UniProt O15047); assay: as above
[4] = molecular target: BOD1L ΔIDR (mutant lacking the conserved IDR) (human) (UniProt Q8NFC6); assay: co-IP; 293T cells; BOD1L constructs precipitated (anti-FLAG M2 or anti-HA agarose, overnight 4 °C), SETD1A detected by western blot; washes with 0.5 M STEN buffer (500 mM NaCl, 0.2% NP-40)
[5] = molecular target: BOD1L ΔShg (mutant lacking the Shg1 domain) (human) (UniProt Q8NFC6); assay: as above

Sequences of proteins named here, by UniProt entry; tags and fusion partners are left off. A change or cut given only in a name is not applied to a line headed by its entry.
UniProt O15047: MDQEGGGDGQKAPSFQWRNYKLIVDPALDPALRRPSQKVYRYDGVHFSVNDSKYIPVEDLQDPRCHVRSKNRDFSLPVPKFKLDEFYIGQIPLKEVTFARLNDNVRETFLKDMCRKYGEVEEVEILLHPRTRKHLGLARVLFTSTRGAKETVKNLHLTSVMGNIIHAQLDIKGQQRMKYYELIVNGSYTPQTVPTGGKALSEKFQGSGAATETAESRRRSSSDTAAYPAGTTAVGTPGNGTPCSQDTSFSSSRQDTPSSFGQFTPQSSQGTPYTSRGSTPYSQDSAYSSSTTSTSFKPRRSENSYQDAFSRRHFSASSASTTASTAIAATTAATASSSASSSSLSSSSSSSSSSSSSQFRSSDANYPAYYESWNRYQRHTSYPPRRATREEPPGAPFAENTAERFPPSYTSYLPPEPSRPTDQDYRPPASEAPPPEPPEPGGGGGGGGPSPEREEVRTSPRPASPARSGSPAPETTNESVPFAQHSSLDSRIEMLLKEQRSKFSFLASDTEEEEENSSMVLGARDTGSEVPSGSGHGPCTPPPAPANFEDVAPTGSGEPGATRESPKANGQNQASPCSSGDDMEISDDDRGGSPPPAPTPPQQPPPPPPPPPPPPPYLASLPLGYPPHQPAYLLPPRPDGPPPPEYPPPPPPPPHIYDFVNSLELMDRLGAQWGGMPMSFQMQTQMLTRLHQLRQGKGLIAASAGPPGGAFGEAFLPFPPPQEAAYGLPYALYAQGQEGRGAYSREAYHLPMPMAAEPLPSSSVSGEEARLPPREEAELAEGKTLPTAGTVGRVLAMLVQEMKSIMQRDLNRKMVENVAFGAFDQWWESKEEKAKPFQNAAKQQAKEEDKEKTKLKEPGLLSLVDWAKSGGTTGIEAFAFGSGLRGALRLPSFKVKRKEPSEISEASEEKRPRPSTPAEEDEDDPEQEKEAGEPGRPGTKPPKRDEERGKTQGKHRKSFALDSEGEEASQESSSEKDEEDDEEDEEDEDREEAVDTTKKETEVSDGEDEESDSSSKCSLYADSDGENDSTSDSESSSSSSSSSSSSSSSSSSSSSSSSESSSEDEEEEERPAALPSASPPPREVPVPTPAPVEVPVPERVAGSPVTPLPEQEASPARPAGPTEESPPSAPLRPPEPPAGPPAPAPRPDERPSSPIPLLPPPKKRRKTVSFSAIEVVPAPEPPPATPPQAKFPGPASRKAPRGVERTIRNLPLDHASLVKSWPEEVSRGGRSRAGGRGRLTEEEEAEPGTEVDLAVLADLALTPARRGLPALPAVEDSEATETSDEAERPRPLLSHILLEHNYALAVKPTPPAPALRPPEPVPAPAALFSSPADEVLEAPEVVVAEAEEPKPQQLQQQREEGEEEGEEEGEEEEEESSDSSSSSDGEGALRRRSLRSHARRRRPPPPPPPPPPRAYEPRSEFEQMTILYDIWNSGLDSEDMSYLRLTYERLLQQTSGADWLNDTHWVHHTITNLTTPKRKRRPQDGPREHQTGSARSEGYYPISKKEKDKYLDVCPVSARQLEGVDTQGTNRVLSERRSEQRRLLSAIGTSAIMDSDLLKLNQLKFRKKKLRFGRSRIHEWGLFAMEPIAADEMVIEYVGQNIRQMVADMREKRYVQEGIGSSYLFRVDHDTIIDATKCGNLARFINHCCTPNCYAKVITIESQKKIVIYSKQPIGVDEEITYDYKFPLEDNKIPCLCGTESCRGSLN
UniProt Q8NFC6: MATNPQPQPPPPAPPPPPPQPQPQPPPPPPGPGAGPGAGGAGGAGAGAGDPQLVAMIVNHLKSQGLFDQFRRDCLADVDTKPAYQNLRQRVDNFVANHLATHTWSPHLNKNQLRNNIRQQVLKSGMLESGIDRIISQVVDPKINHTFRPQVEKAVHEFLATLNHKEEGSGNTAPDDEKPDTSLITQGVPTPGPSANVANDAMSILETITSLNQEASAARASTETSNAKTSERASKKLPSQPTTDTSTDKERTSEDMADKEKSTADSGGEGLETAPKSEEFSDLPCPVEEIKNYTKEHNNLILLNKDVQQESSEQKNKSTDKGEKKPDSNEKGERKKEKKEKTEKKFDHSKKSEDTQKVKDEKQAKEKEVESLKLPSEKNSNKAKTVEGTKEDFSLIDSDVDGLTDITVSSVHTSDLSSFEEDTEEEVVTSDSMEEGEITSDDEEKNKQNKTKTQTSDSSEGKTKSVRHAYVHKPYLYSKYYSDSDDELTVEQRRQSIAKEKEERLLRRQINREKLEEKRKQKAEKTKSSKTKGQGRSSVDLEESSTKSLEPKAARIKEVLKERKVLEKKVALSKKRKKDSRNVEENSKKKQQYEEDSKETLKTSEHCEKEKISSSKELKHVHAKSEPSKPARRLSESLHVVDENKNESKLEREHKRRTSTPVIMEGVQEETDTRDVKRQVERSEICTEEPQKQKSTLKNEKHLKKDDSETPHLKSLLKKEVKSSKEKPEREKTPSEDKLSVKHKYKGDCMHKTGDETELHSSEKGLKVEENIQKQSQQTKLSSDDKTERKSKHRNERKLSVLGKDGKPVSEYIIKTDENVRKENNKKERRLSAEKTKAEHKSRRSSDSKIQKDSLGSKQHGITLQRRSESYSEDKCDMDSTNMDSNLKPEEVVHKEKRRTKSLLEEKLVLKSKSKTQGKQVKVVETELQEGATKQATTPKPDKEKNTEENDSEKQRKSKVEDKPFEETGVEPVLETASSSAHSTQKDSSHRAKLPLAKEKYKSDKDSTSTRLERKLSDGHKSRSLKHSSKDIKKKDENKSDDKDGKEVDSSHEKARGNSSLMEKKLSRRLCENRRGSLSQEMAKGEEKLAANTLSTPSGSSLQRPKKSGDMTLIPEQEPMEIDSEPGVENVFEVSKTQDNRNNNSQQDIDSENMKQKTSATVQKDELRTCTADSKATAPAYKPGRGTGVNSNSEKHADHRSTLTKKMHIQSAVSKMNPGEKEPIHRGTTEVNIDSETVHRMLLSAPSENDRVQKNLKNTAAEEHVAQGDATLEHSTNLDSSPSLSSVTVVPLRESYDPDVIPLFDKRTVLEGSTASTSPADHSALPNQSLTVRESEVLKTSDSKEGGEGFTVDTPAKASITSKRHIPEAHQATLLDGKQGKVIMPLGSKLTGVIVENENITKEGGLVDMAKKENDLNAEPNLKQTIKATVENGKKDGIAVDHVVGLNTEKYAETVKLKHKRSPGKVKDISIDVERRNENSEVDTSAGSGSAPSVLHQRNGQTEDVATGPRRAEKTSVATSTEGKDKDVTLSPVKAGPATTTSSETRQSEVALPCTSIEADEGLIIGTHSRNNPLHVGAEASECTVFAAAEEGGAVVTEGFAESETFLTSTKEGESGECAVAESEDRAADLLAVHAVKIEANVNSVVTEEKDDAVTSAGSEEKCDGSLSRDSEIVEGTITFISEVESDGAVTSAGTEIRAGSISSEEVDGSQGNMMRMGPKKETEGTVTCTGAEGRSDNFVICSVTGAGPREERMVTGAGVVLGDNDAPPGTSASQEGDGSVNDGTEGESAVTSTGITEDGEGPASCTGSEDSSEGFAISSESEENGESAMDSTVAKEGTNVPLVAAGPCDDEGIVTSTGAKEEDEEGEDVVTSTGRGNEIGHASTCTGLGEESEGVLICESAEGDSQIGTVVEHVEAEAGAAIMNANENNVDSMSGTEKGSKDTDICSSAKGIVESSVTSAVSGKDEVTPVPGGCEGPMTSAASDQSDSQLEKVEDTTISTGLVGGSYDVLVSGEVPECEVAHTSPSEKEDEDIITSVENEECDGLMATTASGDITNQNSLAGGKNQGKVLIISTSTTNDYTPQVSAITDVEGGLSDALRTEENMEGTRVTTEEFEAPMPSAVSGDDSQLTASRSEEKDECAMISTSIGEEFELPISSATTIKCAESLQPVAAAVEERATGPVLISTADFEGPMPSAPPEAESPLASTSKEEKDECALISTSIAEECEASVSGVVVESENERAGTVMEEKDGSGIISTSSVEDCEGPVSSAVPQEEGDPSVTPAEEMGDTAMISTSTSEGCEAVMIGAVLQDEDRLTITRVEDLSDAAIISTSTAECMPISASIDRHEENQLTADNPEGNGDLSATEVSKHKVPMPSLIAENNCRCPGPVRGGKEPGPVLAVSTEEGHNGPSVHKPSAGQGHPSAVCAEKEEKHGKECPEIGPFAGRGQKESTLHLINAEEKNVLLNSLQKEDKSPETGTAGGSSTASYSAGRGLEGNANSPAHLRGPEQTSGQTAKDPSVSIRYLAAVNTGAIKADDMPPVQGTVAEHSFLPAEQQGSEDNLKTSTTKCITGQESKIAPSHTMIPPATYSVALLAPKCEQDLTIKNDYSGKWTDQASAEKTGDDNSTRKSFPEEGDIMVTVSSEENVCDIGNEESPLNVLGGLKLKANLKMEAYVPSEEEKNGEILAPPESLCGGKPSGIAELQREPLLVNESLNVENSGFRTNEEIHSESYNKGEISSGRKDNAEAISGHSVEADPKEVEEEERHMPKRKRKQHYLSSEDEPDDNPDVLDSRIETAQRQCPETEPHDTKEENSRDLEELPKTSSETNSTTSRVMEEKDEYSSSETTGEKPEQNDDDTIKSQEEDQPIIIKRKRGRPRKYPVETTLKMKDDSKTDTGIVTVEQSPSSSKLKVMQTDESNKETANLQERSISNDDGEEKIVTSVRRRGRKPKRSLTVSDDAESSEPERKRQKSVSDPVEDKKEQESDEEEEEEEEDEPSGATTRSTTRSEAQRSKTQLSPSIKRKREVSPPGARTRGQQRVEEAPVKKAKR

Substance | binding [1] | binding [2] | binding [3] | binding [4] | binding [5]
BOD1L, full-length human (from UniProt Q8NFC6 1-3051) | no binding | no binding | no binding | – | –
SETD1A (wild type) (from UniProt O15047 1-1707) | – | – | – | binds | no binding

— paper PMC11381347
